Laboratory results taken from patent US20080103095A1.
These are yes or no findings as the source states them, for the method shown. Binding can be weak; no strength is given. Sequences can lack the tags named with a protein. For part of these data: Binding seen in cells or lysates may run through a third protein.

What was measured:
[1] = target: recombinant hsc70 (StressGen Biotechnological Corp); test: co-immunoprecipitation of purified protein pairs, anti-His blot
[2] = target: recombinant hsc70 (StressGen Biotechnological Corp); test: in vitro, purified proteins
[3] = target: recombinant hsc70 (StressGen Biotechnological Corp); test: co-immunoprecipitation of purified protein pairs

Measured: binding

B1: recombinant His-tagged full-length hsp110 expressed in E. coli (Example 7) (protein, UniProt Q60446 1-858, looked up)
chain: MSVVGLDVGSQSCYIAVARAGGIETIANEFSDRCTPSVISFGPKNRTIGVAAKNQQITHANNTVSSFKRFHGRAFSDPFIQKEKESLSYDLVPMKNGGVGIKVMYMDEEHLFSVEQITAMLLTKLKETAENNLKKPVTDCVISVPSFFTDAERRSVLDAAQIVGLNCLRLMNDMTAVALNYGIYKQDLPNADEKPQGSGVCGHGPSSFQVSACAFNKGKLKVLGTAFDPFLGGKNFDEKLVEHFCAEFKTKYKLDAKSKIRALLRLHQECEKLKKLMSSNSTDLPLNIECFMNDKDVSAKMNRSQFEELCAELLQKIEVPLHSLMEQTHLKTEDVSAIEIVGGATRIPAVKERIAKFFGKDVSTTLNADEAVARGCALQCAILSPAFKVREFSVTDAVPFPISLVWNHDSEETEGVHEVFSRNHAAPFSKVLTFLRRGPFELEAFYSDPQGVPYPEAKIGRFVVQNVSAQKDGEKSKVKVKVRVNTHGIFTISTASMVEKVPTEEDDGSSVEADMECPNQKPAESSDVDKNSQQDNSEAGTQPQVQTDGQQTSQSPPSPELPSEENKIPDADKANEKKVDQPPEAKKPKIKVVNVELPVEANLVWQLGRDLLNMYIETEGKMIMQDKLEKERNDAKNAVEECVYEFRDKLCGPYEKFICQQEHEKFLRLLTETEDWLYEEGEDQAKQAYIDKLEELMKMGNPVKVRFQEAEERPKVLEELGQRLQHYAKIAADFRSKDEKYNHIDESEMKKVEKSVNEVMEWMNNVMNAQAKRSLDQDPVVRTHEIRAKVKELNNVCEPVVNQPKPKIESPKLERTPNGPNLDKKEDLEGKDNFGAEAPHQNGECHPNEKGSVNMDLD
binds: all assays above
